Patent publication US20100029542A1, “PROTEIN STERILISATION BY RADIATION AND ADDITION OF A STABILISING COMPOSITION” (priority 2006, published 2010)
Entries after “also recorded” stand apart in the source; their conditions may differ. At least one compound was matched to its structure with a doubt left.

Chains of the proteins cited; added tags and fusions are not shown. Residues count along the entry.
UniProt P01241, 27-217: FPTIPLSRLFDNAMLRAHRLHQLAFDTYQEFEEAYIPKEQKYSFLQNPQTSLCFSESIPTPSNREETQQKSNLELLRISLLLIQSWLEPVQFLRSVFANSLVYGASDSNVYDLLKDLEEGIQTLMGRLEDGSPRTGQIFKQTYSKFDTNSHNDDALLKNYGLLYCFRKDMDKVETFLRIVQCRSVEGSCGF

Assays:
[1] = Table 1, singlet oxygen scavengers; measured in specified solvents; cited from earlier work
Sandostatin = test: Recovery of structural integrity of Sandostatin in dry formulations following gamma irradiation (HPLC); type: physicochemical; conditions: as excipient in the formulation, disulphide bonds
Experimental: (§1) In each example, an aqueous solution of a protein was prepared with selected additives in an Eppendorf tube or in a glass vial. Water was removed from the formulation by drying under a stream of nitrogen at 30° C. and subsequent incubation at atmospheric pressure in the presence of a dessicant. The Eppendorf tubes or the glass vials were sealed and delivered to an industrial sterilisation service for gamma irradiation, with a dose range typical for sterile medical products. The gamma-irradiated samples were reconstituted on their return and analysed for protein activity or structural integrity. The results were compared with those achieved using control (i.e. non-irradiated) samples.
The dry samples (approx. 20 μg in an Eppendorf tube) were gamma-irradiated by an industry-standard commercial sterilising service provided by Isotron PLC (Swindon, Wilts, UK), using a Cobalt 60 gamma source at ambient temperature. […]
Mobile phase A was 0.1 M triethylamine adjusted to pH 2.3 with phosphoric acid. […] Results were expressed as % of main peak area (i.e. area of the peak corresponding to intact sandostatin measured in the gamma irradiated sample with respect to that measured in non-irradiated sample of identical composition). A chromatogram of a standard solution of sandostatin was recorded after every 12 samples to ensure that no drift in the position of the major peak had occurred. […]

catalase = target: T1, catalase (Bos taurus, UniProt P00432); test: Activity recovery of catalase in dry formulations following gamma irradiation; type: physicochemical, bovine; conditions: as excipient in the formulation
T1 construct: Catalase (from bovine liver, Sigma C9322, 2380 U /mg solid); purchased Sigma C9322; host or cells: bovine liver
T1 sequence (P00432 2-527 limits assumed): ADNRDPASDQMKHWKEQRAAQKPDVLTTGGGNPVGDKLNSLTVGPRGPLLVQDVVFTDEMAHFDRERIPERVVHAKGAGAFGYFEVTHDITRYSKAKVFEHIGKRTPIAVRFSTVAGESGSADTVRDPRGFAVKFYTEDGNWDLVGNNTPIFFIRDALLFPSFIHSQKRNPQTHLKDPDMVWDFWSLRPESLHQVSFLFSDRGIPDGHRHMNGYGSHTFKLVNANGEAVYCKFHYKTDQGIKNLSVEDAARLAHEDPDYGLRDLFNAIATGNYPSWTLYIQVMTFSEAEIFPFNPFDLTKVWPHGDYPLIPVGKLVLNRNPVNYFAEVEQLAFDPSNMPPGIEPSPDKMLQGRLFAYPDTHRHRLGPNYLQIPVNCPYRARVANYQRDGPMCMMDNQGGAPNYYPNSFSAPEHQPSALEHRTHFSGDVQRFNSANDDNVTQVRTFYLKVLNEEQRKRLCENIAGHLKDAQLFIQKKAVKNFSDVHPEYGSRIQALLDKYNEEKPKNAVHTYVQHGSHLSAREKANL
Experimental: as §1
The dry samples (approx. 20 μg in an Eppendorf tube) were gamma-irradiated by an industry-standard commercial sterilising service provided by Isotron PLC (Swindon, Wilts, UK), using a Cobalt 60 gamma source at ambient temperature. The radiation dose was in the range of 25-40 kGy. […]
Following the 30 min incubation period, 70 μL of the catalase containing mixture was added to the cuvette and absorbance was read in approximately 30 s. The results were expressed as percentage recovery, by reference to the absorbance measured in the fresh samples (i.e. prior to incubation at increased temperature).

human growth hormone = target: T2, human growth hormone (Homo sapiens, UniProt P01241); test: Recovery of structural integrity of human growth hormone in dry formulations following gamma irradiation (HPLC); type: physicochemical; conditions: as excipient in the formulation, disulphide bridge
T2 construct: purchased National Institute of Biological Standards and Control; further samples on prescription from a GP surgery

SMILES: O=C1O[C@H]([C@@H](O)CO)C(O)=C1O [Ascorbate]
- Rate constant k [1]: k = 1.5 × 10^8 L mol^−1 s^−1
- Compatibility of the compound with Sandostatin (Sandostatin): reduction of the disulphide bonds and subsequent degradation
- Compatibility of the compound with catalase (catalase): compatible
- Compatibility of the compound with human growth hormone (human growth hormone): **Compound was found incompatible with human growth hormone
- Compatibility of the compound with human growth hormone (human growth hormone; listed as ascorbate): incompatibility with human growth hormone; also recorded: reduction of the disulphide bonds and subsequent degradation
- Compatibility of the compound with human growth hormone (human growth hormone; listed as ascorbic acid): incompatible
